Measurements as given in publication PMC6177253.

B1: Heterogeneous nuclear ribonucleoprotein L (protein, UniProt P14866 1-589)
chain: MSRRLLPRAEKRRRRLEQRQQPDEQRRRSGAMVKMAAAGGGGGGGRYYGGGSEGGRAPKRLKTDNAGDQHGGGGGGGGGAGAAGGGGGGENYDDPHKTPASPVVHIRGLIDGVVEADLVEALQEFGPISYVVVMPKKRQALVEFEDVLGACNAVNYAADNQIYIAGHPAFVNYSTSQKISRPGDSDDSRSVNSVLLFTILNPIYSITTDVLYTICNPCGPVQRIVIFRKNGVQAMVEFDSVQSAQRAKASLNGADIYSGCCTLKIEYAKPTRLNVFKNDQDTWDYTNPNLSGQGDPGSNPNKRQRQPPLLGDHPAEYGGPHGGYHSHYHDEGYGPPPPHYEGRRMGPPVGGHRRGPSRYGPQYGHPPPPPPPPEYGPHADSPVLMVYGLDQSKMNCDRVFNVFCLYGNVEKVKFMKSKPGAAMVEMADGYAVDRAITHLNNNFMFGQKLNVCVSKQPAIMPGQSYGLEDGSCSYKDFSESRNNRFSTPEQAAKNRIQHPSNVLHFFNAPLEVTEENFFEICDELGVKRPSSVKVFSGKSERSSSGLLEWESKSDALETLGFLNHYQMKNPNGPYPYTLKLCFSTAQHAS
B2: Alpha-2-macroglobulin (protein, UniProt P01023 24-1474)
chain: SVSGKPQYMVLVPSLLHTETTEKGCVLLSYLNETVTVSASLESVRGNRSLFTDLEAENDVLHCVAFAVPKSSSNEEVMFLTVQVKGPTQEFKKRTTVMVKNEDSLVFVQTDKSIYKPGQTVKFRVVSMDENFHPLNELIPLVYIQDPKGNRIAQWQSFQLEGGLKQFSFPLSSEPFQGSYKVVVQKKSGGRTEHPFTVEEFVLPKFEVQVTVPKIITILEEEMNVSVCGLYTYGKPVPGHVTVSICRKYSDASDCHGEDSQAFCEKFSGQLNSHGCFYQQVKTKVFQLKRKEYEMKLHTEAQIQEEGTVVELTGRQSSEITRTITKLSFVKVDSHFRQGIPFFGQVRLVDGKGVPIPNKVIFIRGNEANYYSNATTDEHGLVQFSINTTNVMGTSLTVRVNYKDRSPCYGYQWVSEEHEEAHHTAYLVFSPSKSFVHLEPMSHELPCGHTQTVQAHYILNGGTLLGLKKLSFYYLIMAKGGIVRTGTHGLLVKQEDMKGHFSISIPVKSDIAPVARLLIYAVLPTGDVIGDSAKYDVENCLANKVDLSFSPSQSLPASHAHLRVTAAPQSVCALRAVDQSVLLMKPDAELSASSVYNLLPEKDLTGFPGPLNDQDNEDCINRHNVYINGITYTPVSSTNEKDMYSFLEDMGLKAFTNSKIRKPKMCPQLQQYEMHGPEGLRVGFYESDVMGRGHARLVHVEEPHTETVRKYFPETWIWDLVVVNSAGVAEVGVTVPDTITEWKAGAFCLSEDAGLGISSTASLRAFQPFFVELTMPYSVIRGEAFTLKATVLNYLPKCIRVSVQLEASPAFLAVPVEKEQAPHCICANGRQTVSWAVTPKSLGNVNFTVSAEALESQELCGTEVPSVPEHGRKDTVIKPLLVEPEGLEKETTFNSLLCPSGGEVSEELSLKLPPNVVEESARASVSVLGDILGSAMQNTQNLLQMPYGCGEQNMVLFAPNIYVLDYLNETQQLTPEIKSKAIGYLNTGYQRQLNYKHYDGSYSTFGERYGRNQGNTWLTAFVLKTFAQARAYIFIDEAHITQALIWLSQRQKDNGCFRSSGSLLNNAIKGGVEDEVTLSAYITIALLEIPLTVTHPVVRNALFCLESAWKTAQEGDHGSHVYTKALLAYAFALAGNQDKRKEVLKSLNEEAVKKDNSVHWERPQKPKAPVGHFYEPQAPSAEVEMTSYVLLAYLTAQPAPTSEDLTSATNIVKWITKQQNAQGGFSSTQDTVVALHALSKYGAATFTRTGKAAQVTIQSSGTFSSKFQVDNNNRLLLQQVSLPELPGEYSMKVTGEGCVYLQTSLKYNILPEKEEFPFALGVQTLPQTCDEPKAHTSFQISLSVSYTGSRSASNMAIVDVKMVSGFIPLKPTVKMLERSNHVSRTEVSSNHVLIYLDKVSNQTLSLFFTVLQDVPVRDLKPAIVKVYDYYETDEFAIAEYNAPCSKDLGNA

Target: recombinant MAVA5_06970 protein (without signal sequence, 6xHN-tagged) (Mycobacterium avium subsp. hominissuis strain A5)
Test: affinity purification with mass spectrometry; 6xHN-MAVA5_06970 immobilised on a His60 nickel column; total protein extract of THP-1 cells (in PBS with protease inhibitors) loaded overnight at 4°C with rotation; washed, eluted, SDS-PAGE, Coomassie bands excised, ESI-MS/MS; control: E. coli with the empty pET6xHN-N vector; only the target purified

Row | Binder | binding
1 | B1 | binds
2 | B2 | binds

These are yes or no findings as the source states them, for the method shown. In cells and extracts the contact can be indirect. Here binding means that the protein was enriched with, or labelled near, the bait; the list need not be complete.
